What all share (experiment): proximity labelling
Assay [1] addresses T1, Msh4-TurboID (S. cerevisiae) (UniProt P40965).
T1 sequence: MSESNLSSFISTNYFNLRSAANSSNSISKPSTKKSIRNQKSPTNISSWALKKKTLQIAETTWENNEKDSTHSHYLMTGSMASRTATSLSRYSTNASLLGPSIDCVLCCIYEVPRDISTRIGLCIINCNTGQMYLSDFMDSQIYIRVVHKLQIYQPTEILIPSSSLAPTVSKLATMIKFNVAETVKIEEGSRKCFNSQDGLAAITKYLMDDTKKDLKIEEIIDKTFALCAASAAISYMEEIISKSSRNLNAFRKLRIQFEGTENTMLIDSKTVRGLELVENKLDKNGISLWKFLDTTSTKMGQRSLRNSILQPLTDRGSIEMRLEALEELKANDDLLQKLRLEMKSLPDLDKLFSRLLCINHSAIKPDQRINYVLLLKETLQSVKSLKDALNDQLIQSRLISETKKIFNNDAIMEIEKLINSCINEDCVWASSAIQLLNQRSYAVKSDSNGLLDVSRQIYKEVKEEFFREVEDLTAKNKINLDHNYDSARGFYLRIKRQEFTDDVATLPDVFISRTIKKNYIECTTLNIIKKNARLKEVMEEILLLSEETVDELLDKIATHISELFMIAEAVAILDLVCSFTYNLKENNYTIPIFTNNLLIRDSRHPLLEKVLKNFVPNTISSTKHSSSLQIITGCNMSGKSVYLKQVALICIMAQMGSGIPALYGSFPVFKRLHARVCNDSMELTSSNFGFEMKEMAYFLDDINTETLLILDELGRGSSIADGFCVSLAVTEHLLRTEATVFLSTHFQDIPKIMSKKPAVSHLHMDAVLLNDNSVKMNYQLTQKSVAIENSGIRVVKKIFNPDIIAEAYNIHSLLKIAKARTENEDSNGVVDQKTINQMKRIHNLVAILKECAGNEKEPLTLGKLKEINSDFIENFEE

Assay [2] has as its target T2, Msh5-TurboID (S. cerevisiae) (UniProt Q12175).
T2 sequence: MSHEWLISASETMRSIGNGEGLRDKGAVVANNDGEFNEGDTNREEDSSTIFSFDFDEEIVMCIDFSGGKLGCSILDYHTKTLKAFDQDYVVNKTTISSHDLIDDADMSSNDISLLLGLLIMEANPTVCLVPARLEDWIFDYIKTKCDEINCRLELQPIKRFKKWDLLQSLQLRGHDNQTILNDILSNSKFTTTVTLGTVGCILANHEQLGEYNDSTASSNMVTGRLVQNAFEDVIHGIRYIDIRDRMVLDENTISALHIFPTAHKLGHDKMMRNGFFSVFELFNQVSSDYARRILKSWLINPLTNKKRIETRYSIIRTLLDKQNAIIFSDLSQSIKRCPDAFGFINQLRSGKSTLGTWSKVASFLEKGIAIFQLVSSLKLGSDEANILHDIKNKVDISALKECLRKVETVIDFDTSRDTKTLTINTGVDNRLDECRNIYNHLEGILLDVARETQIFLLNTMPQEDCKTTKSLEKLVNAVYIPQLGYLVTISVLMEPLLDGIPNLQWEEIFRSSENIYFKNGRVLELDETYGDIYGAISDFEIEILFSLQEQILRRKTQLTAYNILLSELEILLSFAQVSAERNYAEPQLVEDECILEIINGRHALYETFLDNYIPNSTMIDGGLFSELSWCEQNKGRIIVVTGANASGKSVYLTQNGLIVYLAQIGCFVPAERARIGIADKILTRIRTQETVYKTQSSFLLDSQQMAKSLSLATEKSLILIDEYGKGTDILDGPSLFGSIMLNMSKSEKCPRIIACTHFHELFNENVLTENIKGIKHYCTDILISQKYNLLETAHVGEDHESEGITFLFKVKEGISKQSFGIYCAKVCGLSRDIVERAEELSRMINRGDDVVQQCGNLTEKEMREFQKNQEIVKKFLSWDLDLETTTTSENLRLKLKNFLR

In assay [3] the target is T3, Zip2-TurboID (S. cerevisiae) (UniProt P53061).
T3 sequence: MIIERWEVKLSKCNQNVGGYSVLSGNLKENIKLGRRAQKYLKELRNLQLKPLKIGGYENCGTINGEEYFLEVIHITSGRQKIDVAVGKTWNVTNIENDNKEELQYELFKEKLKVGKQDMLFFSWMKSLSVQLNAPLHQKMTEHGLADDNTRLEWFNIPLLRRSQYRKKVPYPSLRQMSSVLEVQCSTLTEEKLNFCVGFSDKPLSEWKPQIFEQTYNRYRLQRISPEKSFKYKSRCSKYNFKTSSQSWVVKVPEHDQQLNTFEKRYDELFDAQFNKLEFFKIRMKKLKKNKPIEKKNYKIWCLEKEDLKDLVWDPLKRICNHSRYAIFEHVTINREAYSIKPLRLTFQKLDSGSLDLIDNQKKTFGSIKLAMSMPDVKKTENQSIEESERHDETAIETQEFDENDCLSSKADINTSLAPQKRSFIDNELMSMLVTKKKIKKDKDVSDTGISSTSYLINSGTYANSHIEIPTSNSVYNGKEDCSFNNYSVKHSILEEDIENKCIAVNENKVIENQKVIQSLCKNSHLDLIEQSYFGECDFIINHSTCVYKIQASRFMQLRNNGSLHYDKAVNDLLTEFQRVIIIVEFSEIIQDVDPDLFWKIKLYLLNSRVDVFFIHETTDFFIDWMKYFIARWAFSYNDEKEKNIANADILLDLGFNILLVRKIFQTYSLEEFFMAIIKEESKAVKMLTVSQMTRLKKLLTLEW

No constants are given. Whether binding was seen depends on the method and setting. Binding seen in cells or lysates may run through a third protein. A yes stands for co-enrichment or nearness to the bait. Other partners may have been found. For some assays here: A no says only that the protein was not detected with the bait.

B1: Zip3[L150E, L160E, L168E, L181E] (protein, UniProt Q06032 1-482)
chain: MGGYLAIVFIPQTNTKSMREKKQKCLKQVRRLSLISPKKYIMPDSIFEQPFVYCGVCHRRTSHGDPLRLTSCAHILCSQHSPLTSKVCPICRSSDISIINLVESKQLPTDIRIFFEPLPPLLESLYNVSQFQLNGLSKQCQYYQNHCLKEREKCARQQQELYQAKIEEDSMAILKKRIQEEESVLNHNNVSSMSVGVLPTRNSHQNHYQPPPTVDLTVDDNSLEEFEAKSFIKKLKKNSSLRNSSKNNNGTVTPSTSGRVNKNQPLFMETLNNPNRNSIPPPGMNPNANSNLPNISTIAESTNLNRFSFSPVRVAKGFDGKLPNLDILTNNGSVSSKNISRLSSASLQPSSPLSSSSNRLILPNSNLKELHHSNTPLTSTSTQFPSALEKLKITRKRNNTISGSNRITHNLSSHVRSSGLAFSSSSNSLQQSKLPKSNILKRSNSTQQLTNTHLKSDNHLPPRSSNTVLGSSKKNNKFRRIR
Regarding B1, the binding result in assay [1] is “no binding”.

B2: Zip2 (protein, UniProt P53061 1-704)
chain: MIIERWEVKLSKCNQNVGGYSVLSGNLKENIKLGRRAQKYLKELRNLQLKPLKIGGYENCGTINGEEYFLEVIHITSGRQKIDVAVGKTWNVTNIENDNKEELQYELFKEKLKVGKQDMLFFSWMKSLSVQLNAPLHQKMTEHGLADDNTRLEWFNIPLLRRSQYRKKVPYPSLRQMSSVLEVQCSTLTEEKLNFCVGFSDKPLSEWKPQIFEQTYNRYRLQRISPEKSFKYKSRCSKYNFKTSSQSWVVKVPEHDQQLNTFEKRYDELFDAQFNKLEFFKIRMKKLKKNKPIEKKNYKIWCLEKEDLKDLVWDPLKRICNHSRYAIFEHVTINREAYSIKPLRLTFQKLDSGSLDLIDNQKKTFGSIKLAMSMPDVKKTENQSIEESERHDETAIETQEFDENDCLSSKADINTSLAPQKRSFIDNELMSMLVTKKKIKKDKDVSDTGISSTSYLINSGTYANSHIEIPTSNSVYNGKEDCSFNNYSVKHSILEEDIENKCIAVNENKVIENQKVIQSLCKNSHLDLIEQSYFGECDFIINHSTCVYKIQASRFMQLRNNGSLHYDKAVNDLLTEFQRVIIIVEFSEIIQDVDPDLFWKIKLYLLNSRVDVFFIHETTDFFIDWMKYFIARWAFSYNDEKEKNIANADILLDLGFNILLVRKIFQTYSLEEFFMAIIKEESKAVKMLTVSQMTRLKKLLTLEW
Consider B2, for which the binding entry in assay [1] and in assay [2] was “binds” throughout.

B3: Zip3[Δ388-400] (protein, UniProt Q06032)
chain: MGGYLAIVFIPQTNTKSMREKKQKCLKQVRRLSLISPKKYIMPDSIFEQPFVYCGVCHRRTSHGDPLRLTSCAHILCSQHSPLTSKVCPICRSSDISIINLVESKQLPTDIRIFFEPLPPLLESLYNVSQFQLNGLSKQCQYYQNHCLKLREKCARQQQLLYQAKIELDSMAILKKRIQELESVLNHNNVSSMSVGVLPTRNSHQNHYQPPPTVDLTVDDNSLEEFEAKSFIKKLKKNSSLRNSSKNNNGTVTPSTSGRVNKNQPLFMETLNNPNRNSIPPPGMNPNANSNLPNISTIAESTNLNRFSFSPVRVAKGFDGKLPNLDILTNNGSVSSKNISRLSSASLQPSSPLSSSSNRLILPNSNLKELHHSNTPLTSTSTQFPSAISGSNRITHNLSSHVRSSGLAFSSSSNSLQQSKLPKSNILKRSNSTQQLTNTHLKSDNHLPPRSSNTVLGSSKKNNKFRRIR
Consider B3, for which, in assay [1], the binding result is “no binding”.

B4: Zip3[Δ107-121] (protein, UniProt Q06032)
chain: MGGYLAIVFIPQTNTKSMREKKQKCLKQVRRLSLISPKKYIMPDSIFEQPFVYCGVCHRRTSHGDPLRLTSCAHILCSQHSPLTSKVCPICRSSDISIINLVESKQLESLYNVSQFQLNGLSKQCQYYQNHCLKLREKCARQQQLLYQAKIELDSMAILKKRIQELESVLNHNNVSSMSVGVLPTRNSHQNHYQPPPTVDLTVDDNSLEEFEAKSFIKKLKKNSSLRNSSKNNNGTVTPSTSGRVNKNQPLFMETLNNPNRNSIPPPGMNPNANSNLPNISTIAESTNLNRFSFSPVRVAKGFDGKLPNLDILTNNGSVSSKNISRLSSASLQPSSPLSSSSNRLILPNSNLKELHHSNTPLTSTSTQFPSALEKLKITRKRNNTISGSNRITHNLSSHVRSSGLAFSSSSNSLQQSKLPKSNILKRSNSTQQLTNTHLKSDNHLPPRSSNTVLGSSKKNNKFRRIR
For B4, the binding result in assay [1] is on record as “no binding”.

B5: Zip3[Δ137-150] (protein, UniProt Q06032)
chain: MGGYLAIVFIPQTNTKSMREKKQKCLKQVRRLSLISPKKYIMPDSIFEQPFVYCGVCHRRTSHGDPLRLTSCAHILCSQHSPLTSKVCPICRSSDISIINLVESKQLPTDIRIFFEPLPPLLESLYNVSQFQLNGLREKCARQQQLLYQAKIELDSMAILKKRIQELESVLNHNNVSSMSVGVLPTRNSHQNHYQPPPTVDLTVDDNSLEEFEAKSFIKKLKKNSSLRNSSKNNNGTVTPSTSGRVNKNQPLFMETLNNPNRNSIPPPGMNPNANSNLPNISTIAESTNLNRFSFSPVRVAKGFDGKLPNLDILTNNGSVSSKNISRLSSASLQPSSPLSSSSNRLILPNSNLKELHHSNTPLTSTSTQFPSALEKLKITRKRNNTISGSNRITHNLSSHVRSSGLAFSSSSNSLQQSKLPKSNILKRSNSTQQLTNTHLKSDNHLPPRSSNTVLGSSKKNNKFRRIR
With B5, the binding entry in assay [1] was “no binding”.

B6: Zip3[Δ203-482] (protein, UniProt Q06032)
chain: MGGYLAIVFIPQTNTKSMREKKQKCLKQVRRLSLISPKKYIMPDSIFEQPFVYCGVCHRRTSHGDPLRLTSCAHILCSQHSPLTSKVCPICRSSDISIINLVESKQLPTDIRIFFEPLPPLLESLYNVSQFQLNGLSKQCQYYQNHCLKLREKCARQQQLLYQAKIELDSMAILKKRIQELESVLNHNNVSSMSVGVLPTRN
As for B6, the binding result in assay [1] and in assay [3] was “no binding” throughout.

For the origin of these results see paper doi:10.1101/2023.09.17.558147.
